# Measured values: the supplement of paper PMC7666118
# Amino acid sequences for entries named in this document (tags omitted). A change or cut given only in a name is not applied to a line headed by its entry.
# UniProt Q8IUR7, whole entry: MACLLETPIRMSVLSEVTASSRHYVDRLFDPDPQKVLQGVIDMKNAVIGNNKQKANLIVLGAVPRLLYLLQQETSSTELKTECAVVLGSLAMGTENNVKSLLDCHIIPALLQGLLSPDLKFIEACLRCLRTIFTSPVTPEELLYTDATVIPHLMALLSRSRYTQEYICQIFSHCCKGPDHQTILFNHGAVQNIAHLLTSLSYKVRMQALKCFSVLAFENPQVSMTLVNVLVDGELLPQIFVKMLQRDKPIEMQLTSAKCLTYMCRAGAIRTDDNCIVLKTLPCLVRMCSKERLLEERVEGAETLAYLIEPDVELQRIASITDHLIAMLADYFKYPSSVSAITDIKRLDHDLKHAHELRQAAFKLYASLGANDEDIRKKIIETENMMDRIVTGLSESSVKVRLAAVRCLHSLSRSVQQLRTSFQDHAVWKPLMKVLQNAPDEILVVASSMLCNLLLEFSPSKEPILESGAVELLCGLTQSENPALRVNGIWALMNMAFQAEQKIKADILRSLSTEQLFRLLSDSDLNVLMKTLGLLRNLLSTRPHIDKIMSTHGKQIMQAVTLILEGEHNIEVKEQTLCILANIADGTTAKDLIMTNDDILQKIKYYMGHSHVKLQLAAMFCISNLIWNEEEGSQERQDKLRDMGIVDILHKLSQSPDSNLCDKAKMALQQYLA
# UniProt O95861: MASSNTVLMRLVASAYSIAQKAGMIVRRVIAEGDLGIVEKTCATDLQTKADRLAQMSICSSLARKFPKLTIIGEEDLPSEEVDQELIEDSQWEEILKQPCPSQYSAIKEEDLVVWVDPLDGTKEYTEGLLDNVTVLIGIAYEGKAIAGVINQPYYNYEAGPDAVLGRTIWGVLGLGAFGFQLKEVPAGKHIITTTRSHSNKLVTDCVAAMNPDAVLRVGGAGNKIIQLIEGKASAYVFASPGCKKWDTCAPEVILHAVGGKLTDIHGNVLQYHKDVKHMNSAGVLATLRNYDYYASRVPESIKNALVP
# UniProt P02818: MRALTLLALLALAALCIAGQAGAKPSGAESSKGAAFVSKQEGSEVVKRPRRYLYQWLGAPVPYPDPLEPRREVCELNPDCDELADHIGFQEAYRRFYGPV
# UniProt Q9Y6E2: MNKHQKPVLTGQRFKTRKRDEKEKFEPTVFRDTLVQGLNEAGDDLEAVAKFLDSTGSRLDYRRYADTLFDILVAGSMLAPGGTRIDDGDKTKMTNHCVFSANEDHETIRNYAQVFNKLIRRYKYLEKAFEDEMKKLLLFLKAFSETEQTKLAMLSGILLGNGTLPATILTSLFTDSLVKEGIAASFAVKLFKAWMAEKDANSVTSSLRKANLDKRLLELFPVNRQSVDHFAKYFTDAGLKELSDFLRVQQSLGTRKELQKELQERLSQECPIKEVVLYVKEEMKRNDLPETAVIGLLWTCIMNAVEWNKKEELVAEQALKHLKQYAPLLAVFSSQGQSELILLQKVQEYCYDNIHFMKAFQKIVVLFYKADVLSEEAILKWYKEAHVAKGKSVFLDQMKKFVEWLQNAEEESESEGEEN
# UniProt Q13535: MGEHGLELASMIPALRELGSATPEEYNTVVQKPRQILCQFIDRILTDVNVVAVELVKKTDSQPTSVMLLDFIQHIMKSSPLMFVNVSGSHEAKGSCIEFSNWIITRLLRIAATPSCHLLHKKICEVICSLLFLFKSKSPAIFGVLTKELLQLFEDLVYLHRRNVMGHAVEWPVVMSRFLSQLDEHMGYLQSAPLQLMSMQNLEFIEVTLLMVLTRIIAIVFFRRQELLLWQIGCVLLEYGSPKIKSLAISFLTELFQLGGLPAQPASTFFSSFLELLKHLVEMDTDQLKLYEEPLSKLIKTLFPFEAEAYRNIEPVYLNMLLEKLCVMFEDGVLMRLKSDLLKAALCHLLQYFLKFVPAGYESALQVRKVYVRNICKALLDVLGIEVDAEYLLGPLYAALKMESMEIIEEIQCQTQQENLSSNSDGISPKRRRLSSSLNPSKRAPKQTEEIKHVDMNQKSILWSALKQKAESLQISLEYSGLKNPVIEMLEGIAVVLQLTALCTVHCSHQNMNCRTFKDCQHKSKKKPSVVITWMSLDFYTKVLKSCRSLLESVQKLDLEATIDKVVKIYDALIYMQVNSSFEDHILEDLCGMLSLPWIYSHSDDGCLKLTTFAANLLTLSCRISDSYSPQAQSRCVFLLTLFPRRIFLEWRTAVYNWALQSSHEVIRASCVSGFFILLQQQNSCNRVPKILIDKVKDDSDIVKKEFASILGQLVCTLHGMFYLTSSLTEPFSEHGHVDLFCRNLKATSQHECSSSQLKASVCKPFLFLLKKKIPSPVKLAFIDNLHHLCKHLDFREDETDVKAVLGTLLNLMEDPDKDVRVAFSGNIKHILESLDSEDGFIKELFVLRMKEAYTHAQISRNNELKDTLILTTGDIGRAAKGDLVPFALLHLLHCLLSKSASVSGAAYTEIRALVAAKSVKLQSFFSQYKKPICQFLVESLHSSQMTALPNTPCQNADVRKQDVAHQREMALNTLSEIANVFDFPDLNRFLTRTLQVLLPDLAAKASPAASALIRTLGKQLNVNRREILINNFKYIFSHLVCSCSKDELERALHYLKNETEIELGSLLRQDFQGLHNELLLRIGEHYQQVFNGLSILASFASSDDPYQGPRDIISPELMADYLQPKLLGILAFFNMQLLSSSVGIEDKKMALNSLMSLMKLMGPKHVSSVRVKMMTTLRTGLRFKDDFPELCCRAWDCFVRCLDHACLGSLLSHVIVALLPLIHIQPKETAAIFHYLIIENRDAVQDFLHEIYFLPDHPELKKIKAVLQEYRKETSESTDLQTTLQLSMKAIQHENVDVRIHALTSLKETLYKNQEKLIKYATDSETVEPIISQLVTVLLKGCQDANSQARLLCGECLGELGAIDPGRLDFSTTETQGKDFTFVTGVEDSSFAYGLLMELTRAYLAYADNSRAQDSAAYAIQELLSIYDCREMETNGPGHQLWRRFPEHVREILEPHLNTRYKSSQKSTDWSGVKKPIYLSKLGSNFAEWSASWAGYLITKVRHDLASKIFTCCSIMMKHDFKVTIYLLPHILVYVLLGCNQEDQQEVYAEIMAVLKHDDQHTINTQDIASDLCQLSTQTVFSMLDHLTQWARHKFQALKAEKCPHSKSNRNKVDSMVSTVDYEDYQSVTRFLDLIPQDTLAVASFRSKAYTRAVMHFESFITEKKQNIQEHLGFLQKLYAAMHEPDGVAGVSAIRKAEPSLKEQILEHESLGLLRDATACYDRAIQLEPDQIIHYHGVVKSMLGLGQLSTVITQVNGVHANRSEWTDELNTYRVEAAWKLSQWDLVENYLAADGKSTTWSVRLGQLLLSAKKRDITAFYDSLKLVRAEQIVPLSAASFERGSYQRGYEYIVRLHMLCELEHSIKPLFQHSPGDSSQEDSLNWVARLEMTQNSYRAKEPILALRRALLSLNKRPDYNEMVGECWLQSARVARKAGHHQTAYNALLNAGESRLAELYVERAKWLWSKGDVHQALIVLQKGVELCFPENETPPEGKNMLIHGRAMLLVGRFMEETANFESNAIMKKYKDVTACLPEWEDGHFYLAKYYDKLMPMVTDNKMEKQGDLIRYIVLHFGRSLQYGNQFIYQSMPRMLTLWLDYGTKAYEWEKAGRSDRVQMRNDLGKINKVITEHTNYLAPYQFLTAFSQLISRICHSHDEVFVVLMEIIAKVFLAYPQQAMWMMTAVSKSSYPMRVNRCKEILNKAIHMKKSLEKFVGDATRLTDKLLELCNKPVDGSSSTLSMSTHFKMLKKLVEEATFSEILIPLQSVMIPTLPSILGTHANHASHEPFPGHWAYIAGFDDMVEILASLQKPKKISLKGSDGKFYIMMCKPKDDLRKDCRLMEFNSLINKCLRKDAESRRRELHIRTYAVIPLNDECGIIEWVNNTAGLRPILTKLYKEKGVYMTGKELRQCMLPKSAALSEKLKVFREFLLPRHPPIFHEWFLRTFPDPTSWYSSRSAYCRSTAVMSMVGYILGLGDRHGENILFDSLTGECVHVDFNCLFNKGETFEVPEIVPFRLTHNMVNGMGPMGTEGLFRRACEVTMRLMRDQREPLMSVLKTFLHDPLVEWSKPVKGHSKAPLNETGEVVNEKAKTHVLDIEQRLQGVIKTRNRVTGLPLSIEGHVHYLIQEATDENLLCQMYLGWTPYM
# UniProt P15056, whole entry: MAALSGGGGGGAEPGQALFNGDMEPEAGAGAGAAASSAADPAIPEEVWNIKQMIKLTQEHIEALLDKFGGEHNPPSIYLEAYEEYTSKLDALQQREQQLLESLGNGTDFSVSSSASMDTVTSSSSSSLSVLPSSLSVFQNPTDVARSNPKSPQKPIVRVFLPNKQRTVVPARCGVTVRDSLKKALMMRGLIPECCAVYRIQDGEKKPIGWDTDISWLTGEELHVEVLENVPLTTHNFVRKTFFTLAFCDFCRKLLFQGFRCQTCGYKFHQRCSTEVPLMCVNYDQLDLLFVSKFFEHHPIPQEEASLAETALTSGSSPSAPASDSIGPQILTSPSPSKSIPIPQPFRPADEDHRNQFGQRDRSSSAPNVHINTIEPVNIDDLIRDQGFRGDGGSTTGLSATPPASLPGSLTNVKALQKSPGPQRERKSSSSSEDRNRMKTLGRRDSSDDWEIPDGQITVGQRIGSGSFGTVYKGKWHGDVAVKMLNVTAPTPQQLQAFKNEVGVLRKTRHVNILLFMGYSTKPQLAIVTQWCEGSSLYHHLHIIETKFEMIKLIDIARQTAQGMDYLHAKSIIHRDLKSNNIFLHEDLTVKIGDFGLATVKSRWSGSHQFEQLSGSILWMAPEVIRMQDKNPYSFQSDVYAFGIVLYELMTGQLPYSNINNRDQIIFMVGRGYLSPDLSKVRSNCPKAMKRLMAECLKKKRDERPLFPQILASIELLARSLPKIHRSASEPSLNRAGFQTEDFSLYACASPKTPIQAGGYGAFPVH
# UniProt Q9UBL3, whole entry, looked up: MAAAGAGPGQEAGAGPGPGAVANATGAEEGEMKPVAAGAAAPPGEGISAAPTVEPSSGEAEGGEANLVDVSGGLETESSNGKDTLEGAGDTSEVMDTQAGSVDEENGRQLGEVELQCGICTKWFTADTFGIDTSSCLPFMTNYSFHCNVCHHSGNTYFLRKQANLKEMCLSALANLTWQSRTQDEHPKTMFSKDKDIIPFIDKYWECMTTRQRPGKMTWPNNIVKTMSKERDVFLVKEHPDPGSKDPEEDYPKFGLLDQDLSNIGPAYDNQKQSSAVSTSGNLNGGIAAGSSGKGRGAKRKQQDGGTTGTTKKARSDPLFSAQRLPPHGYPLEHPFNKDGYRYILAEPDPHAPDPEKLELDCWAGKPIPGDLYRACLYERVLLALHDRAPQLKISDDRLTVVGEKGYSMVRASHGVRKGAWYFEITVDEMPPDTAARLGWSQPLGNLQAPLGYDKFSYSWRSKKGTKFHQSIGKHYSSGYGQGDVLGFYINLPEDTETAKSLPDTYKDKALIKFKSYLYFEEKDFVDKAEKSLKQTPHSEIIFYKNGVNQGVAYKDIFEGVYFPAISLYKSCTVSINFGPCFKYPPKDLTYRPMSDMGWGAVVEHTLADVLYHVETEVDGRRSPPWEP
# UniProt Q7Z3E5: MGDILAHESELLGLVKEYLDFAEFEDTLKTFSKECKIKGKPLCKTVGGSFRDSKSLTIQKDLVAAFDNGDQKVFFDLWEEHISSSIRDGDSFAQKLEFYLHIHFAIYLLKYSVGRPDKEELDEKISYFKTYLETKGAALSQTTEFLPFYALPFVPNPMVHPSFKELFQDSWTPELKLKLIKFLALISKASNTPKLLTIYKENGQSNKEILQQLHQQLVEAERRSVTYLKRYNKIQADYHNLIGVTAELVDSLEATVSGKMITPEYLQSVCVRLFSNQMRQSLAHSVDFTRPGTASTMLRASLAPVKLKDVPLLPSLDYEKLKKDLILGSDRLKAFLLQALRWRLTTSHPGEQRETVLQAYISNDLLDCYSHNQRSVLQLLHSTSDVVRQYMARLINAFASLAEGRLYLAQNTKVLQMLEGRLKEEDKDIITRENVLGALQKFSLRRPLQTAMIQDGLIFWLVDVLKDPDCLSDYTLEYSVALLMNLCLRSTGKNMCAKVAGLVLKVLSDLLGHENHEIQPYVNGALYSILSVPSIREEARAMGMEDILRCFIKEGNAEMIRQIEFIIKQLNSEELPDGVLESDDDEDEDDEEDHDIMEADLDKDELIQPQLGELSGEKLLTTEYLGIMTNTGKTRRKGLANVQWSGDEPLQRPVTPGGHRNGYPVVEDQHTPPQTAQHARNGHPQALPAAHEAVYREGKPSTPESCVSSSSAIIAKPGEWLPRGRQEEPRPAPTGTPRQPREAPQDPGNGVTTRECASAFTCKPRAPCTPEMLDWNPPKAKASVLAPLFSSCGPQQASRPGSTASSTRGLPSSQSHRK
# UniProt O75964: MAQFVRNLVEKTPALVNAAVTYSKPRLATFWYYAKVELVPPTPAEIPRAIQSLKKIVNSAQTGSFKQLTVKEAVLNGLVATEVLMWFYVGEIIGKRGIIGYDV
# Some of the results follow.
# Compound: COc1ccc(Cn2ccc3ccc(C(=O)NO)cc32)cc1
# Assay: dose-dependent thermal stabilisation call (2D-TPP, DLPTP, 10% FDR) (binary (1 = stabilised)); higher = stabilised by the compound
# Settings: system: HL-60 intact cells; concentration range 0.04-10 µM
row,Target,dose-dependent thermal stabilisation call
1,ARMC8 (UniProt Q8IUR7),inactive: 0
2,ATP11B (UniProt Q9Y2G3),inactive: 0
3,BPNT1 (UniProt O95861),inactive: 0
4,ATG2A (UniProt Q2TAZ0),inactive: 0
5,BGLAP (UniProt P02818),inactive: 0
6,BCL7C (UniProt Q8WUZ0),inactive: 0
7,ARMCX3 (UniProt Q9UH62),inactive: 0
8,BCL2L11 (UniProt O43521),inactive: 0
9,C11ORF54 (UniProt Q9H0W9),active: 1
10,BZW2 (UniProt Q9Y6E2),inactive: 0
11,C12ORF51 (UniProt Q9Y4D8),inactive: 0
12,ATR (UniProt Q13535),inactive: 0
13,BAT2 (UniProt P48634),inactive: 0
14,ARL8B (UniProt Q9NVJ2),inactive: 0
15,BZW1 (UniProt Q7L1Q6),inactive: 0
16,ATP5S (UniProt Q99766),inactive: 0
17,ATF7IP (UniProt Q6VMQ6),inactive: 0
18,BRAF (UniProt P15056),inactive: 0
19,ASH2L (UniProt Q9UBL3),inactive: 0
20,BAZ1A (UniProt Q9NRL2),inactive: 0
21,BRE (UniProt Q9NXR7),inactive: 0
22,UniProt B4E0S5_HUMAN,inactive: 0
23,ARMC9 (UniProt Q7Z3E5),inactive: 0
24,C11ORF73 (UniProt Q53FT3),inactive: 0
25,BUD13 (UniProt Q9BRD0),inactive: 0
26,ATP5L (UniProt O75964),inactive: 0
27,BCAT2 (UniProt O15382),inactive: 0

# Quoted from the listing.
# Under dose-dependent thermal stabilisation call, ATP11B (UniProt Q9Y2G3) is entered as inactive: 0
# Under dose-dependent thermal stabilisation call, BAT2 (UniProt P48634) is entered as inactive: 0
